Experimental findings from PubChem BioAssay AID2685 (National Center for Advancing Translational Sciences (NCATS), 2010) are described below.

The term AC50 denotes the concentration at which the activity in the assay is half-maximal. A high value points to activity only at high concentration.

The nature of the test: qHTS Assay for Lipid Storage Modulators in Drosophila S3 Cells.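 For cell number change: cells counted by Cell Tracker Red CMTPX staining in the red channel.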 As to conditions: BODIPY lipid droplet fluorescence, 18-24 h; for cell number change: measured here: cell count max response, cells fed with added oleic acid. The procedure, abridged: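 Drosophila S3 cells got compounds at several concentrations plus oleic acid (400 uM solution). Laser-scanning cytometry with 488 nm excitation read lipid droplets at 500-530 nm and cells at 575-640 nm. Percent activity was relative to 20 uM Triacsin C.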

Setting [1] is: measured here: cell number channel AC50, cells fed with added oleic acid.
Setting [2] is: measured here: lipid fluorescence (Fed channel) AC50, cells fed with added oleic acid.

Structures are written as SMILES. Some of the results follow. Shown are side measurements of this screen, not its main read-out; they come without a call. Most of these compounds were active or inconclusive in the main read-out, so they are no random draw. Potencies come from curve fits of mixed quality, noted in brackets.

For the compound `COc1ccc(/C=N/OCC(=O)N(Cc2ccc(OC)cc2)c2ccccc2C(=O)O)cc1`, the half-maximal activity concentration (AC50) under setting [1] is 2.31 µM [falling, partial curve] and the AC50 under setting [2] is 20.6 µM [rising, single point].

In the case of `COc1ccc(NC(=O)N2C3CCCC2CC(NC(=O)c2ccccc2)C3)cc1` (stereo unspecified), the cell number change turned out to be 24.3%.

In the case of `COc1ccc(C2CC(c3ccccc3OC(=O)/C=C/c3ccccc3)=NN2C(C)=O)cc1` (stereo unspecified), the cell number change came out at 19.2%. For the same compound, the AC50 under setting [1] was 0.291 µM [rising, full curve, poor fit]. Under setting [2], the AC50 is 1.84 µM [rising, partial curve, poor fit].

For the compound `O=C(Nc1ccc(C(=O)NCc2ccccc2)cc1)C1=CSCCO1`, the cell number change is -7.98%.

As to `Cc1ccc(NC(=O)CSc2nc3c(c(=O)n(C)c(=O)n3C)n2C)cc1`, the cell number change came out at 17.5%.

With `C#CCOc1ccc(OC)cc1C(c1c(C)[nH][nH]c1=O)c1c(C)[nH][nH]c1=O`, the cell number change was -2.38%.

Regarding `COc1c(C)cc(C(=O)C2CCCN(C(=O)c3ccoc3)C2)cc1C` (stereo unspecified), the cell number change worked out at 24.1%. Under setting [2], the half-maximal activity concentration (AC50) was 0.82 µM [rising, full curve, poor fit].

Take `CCN(CC)CCOCCOc1cc(C)c(Cl)c(C)c1`: the cell number change was -103%. The AC50 under setting [1] is 32.6 µM [falling, partial curve]. The concentration at half-maximal activity (AC50) under setting [2] is 25.9 µM [falling, partial curve].

As to `CC(C)(CO)NCC(=O)Nc1cc(C(F)(F)F)cc(NC(=O)CNC(C)(C)CO)c1Cl`, the cell number change was determined as 47%. The AC50 under setting [1] is 0.731 µM [rising, full curve, poor fit].

Take `COc1ccc(CNCC(O)(c2ccc(Cl)cc2)c2ccc(Cl)cc2)cc1`: the cell number change was -64.9%.

For the compound `CCOc1ccc(C2CC(c3cccc(C)c3)n3nc(N)nc3N2)cc1` (stereo unspecified), the cell number change was 9.39%.

Consider `O=C(Nc1nnc(C2CCCCC2)s1)c1ccc(Br)s1`, for which the cell number change worked out at 9.47%.

With `O=[N+]([O-])c1cc2c(c(CSc3nnnn3-c3ccc(O)cc3)c1)OCOC2`, the cell number change was -44.8%. For the same compound, the AC50 under setting [1] is 0.13 µM [falling, full curve, poor fit].

As for `CCOc1cccc(-c2cc(C(=O)NN)[nH]n2)c1`, the cell number change came out at 19.4%. Moreover, the AC50 under setting [2] was 29.1 µM [falling, partial curve].

`COC(=O)CNC(c1ccccc1)c1cc(Br)ccc1NS(=O)(=O)c1ccc(C)cc1` (stereo unspecified): the cell number change is 24.6%. Moreover, under setting [1], the AC50 was 3.26 µM [falling, partial curve]. Under setting [2], the AC50 is 18.4 µM [rising, single point].

`Cc1ccc(S(=O)(=O)n2nc(OC(=O)C3CCCCC3)cc2N)cc1`: the cell number change was determined as 7.77%. Further, the AC50 under setting [2] is 16.4 µM [falling, partial curve].

As to `O=C(c1ccccc1)[C@@H]1[C@@H](C(=O)c2ccc(F)cc2)[C@@]2(C(=O)Nc3ccccc32)[C@H]2c3ccccc3C=CN12`, the cell number change is -21.5%. Also, the AC50 under setting [2] was 18.4 µM [falling, single point].

On to `C#CCNC(=O)/C=C/c1ccc(C)cc1`, for which the cell number change came to 4.04%. Moreover, the AC50 under setting [2] was 9.2 µM [rising, partial curve].

For `O=C(OCC(O)COc1ccccc1)c1ccc([N+](=O)[O-])cc1` (stereo unspecified), the cell number change came out at 129%. Also, the AC50 under setting [1] is 16.4 µM [rising, partial curve]. The AC50 under setting [2] was 0.184 µM [rising, full curve, poor fit].

Regarding `CCc1nc(SCC#N)c(C#N)cc1C`, the cell number change is -23.9%. Besides, the AC50 under setting [1] was 0.366 µM [falling, partial curve, poor fit]. In addition, the half-maximal activity concentration (AC50) under setting [2] is 6.51 µM [falling, partial curve, poor fit].

With `Cc1cccc(CSc2ccc(-c3cccs3)nn2)c1`, the cell number change was -20.5%. Under setting [2], the AC50 was 16.4 µM [falling, single point].

As to `O=S(=O)(Nc1ccc2c(c1)OCCO2)c1cccc2nsnc12`, the cell number change was determined as 2.77%. For the same compound, the AC50 under setting [2] was 1.16 µM [falling, full curve, poor fit].

For `COc1cc(/C=c2/sc3nc(-c4ccccc4)c(-c4ccccc4)n3c2=O)cc(OC)c1OC`, the cell number change is -16.1%. Under setting [2], the concentration at half-maximal activity (AC50) is 20.6 µM [falling, single point].

Turning to `CC1=CC(=C2N=C(c3ccccc3)OC2=O)C=C(C)O1`, the cell number change was -2.58%. For the same compound, under setting [2], the AC50 was 9.2 µM [rising, partial curve, poor fit].

Take `CCOC(=O)CN(Cc1sccc1C)C(=O)Nc1ccc(OC)cc1OC`: the cell number change was 53.7%. Further, the AC50 under setting [1] is 2.91 µM [rising, full curve]. Besides, the AC50 under setting [2] is 29.1 µM [falling, single point].

As for `O=C(NCCc1csc(-c2cccnc2)n1)c1cccs1`, the cell number change worked out at 8.89%. Also, the AC50 under setting [2] is 0.058 µM [rising, full curve, poor fit].

With `O=C(CCn1c(=O)sc2ccccc21)NCc1ccccc1`, the cell number change came to 30.7%. Further, the AC50 under setting [1] was 29.1 µM [rising, single point]. Further, the half-maximal activity concentration (AC50) under setting [2] was 29.1 µM [rising, single point].

Consider `O=C(NNC(=O)c1cc(S(=O)(=O)N2CCCCC2)ccc1Cl)c1ccccc1O`, for which the cell number change is 30%. The AC50 under setting [1] was 23.1 µM [rising, single point]. Moreover, the AC50 under setting [2] is 29.1 µM [rising, single point].

As to `CC(C)(C)c1ccc(COC(=O)CN2C(=O)NC3(CCCC3)C2=O)cc1`, the cell number change is -57.9%. The AC50 under setting [1] is 14.6 µM [falling, partial curve]. Moreover, the AC50 under setting [2] is 29.1 µM [falling, single point].

Consider `Cn1ncc([N+](=O)[O-])c1C(=O)NC1CCCCC1`, for which the cell number change is 16.4%.

For the compound `Cc1ccc2nc(-c3cccs3)oc(=O)c2c1`, the cell number change was 45.4%. Under setting [1], the AC50 is 4.11 µM [rising, partial curve, poor fit].

On to `COc1ccccc1O`, for which the cell number change is -12.4%. Under setting [2], the AC50 is 0.259 µM [falling, full curve, poor fit].

Turning to `CC(C)(C)c1ccc(C(=O)N/N=C/c2ccc(OCCCF)cc2)cc1`, the cell number change is -17.2%.

`O=C(c1cc(COc2c(F)cccc2F)on1)N1CCC(c2ccncc2)CC1`: the cell number change was -21.8%. In addition, the AC50 under setting [2] is 29.1 µM [falling, single point].

Consider `CCN(C1CCCCC1)S(=O)(=O)c1ccc(S(=O)(=O)NCCc2ccncc2)cc1`, for which the cell number change is -7.22%. Moreover, the AC50 under setting [2] is 6.51 µM [rising, single point].

`O=C(C1CCCC1)N1CCN(S(=O)(=O)c2ccc(F)c(F)c2F)CC1`: the cell number change is -4.76%. The half-maximal activity concentration (AC50) under setting [1] was 2.06 µM [rising, partial curve, poor fit].

With `CCOC(=O)C1CC2CC(C1)CN(C(=O)C1CCCCC1)C2` (stereo unspecified), the cell number change is -16%.

For `CCOCCCNCC(=O)N1CCN(S(=O)(=O)c2ccc(C)cc2)CC1`, the cell number change is -91.8%. The half-maximal activity concentration (AC50) under setting [1] was 29.1 µM [falling, single point]. Also, the half-maximal activity concentration (AC50) under setting [2] was 29.1 µM [falling, partial curve].
